For 36 compounds, AC50 results are on record in PubChem BioAssay AID1487 (National Center for Advancing Translational Sciences (NCATS), 2009).

The assay can be described thus: qHTS Assay for Modulators of Lamin A Splicing. The note with it: HeLa LMNA splicing GFP/RFP minigene ratio, 48 h. In outline: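 S3 HeLa stable clones carrying a lamin A-EGFP splicing minigene plus DsRed2 were seeded at 600 cells/well in Opti-MEM with 2% FBS, pin-dosed and incubated 48 h at 37°C. Acumen cytometry (488 nm) gave the GFP/RFP total-intensity ratio.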
For orientation: In qHTS, concentration-response curves come from the screen itself.

Where [1] appears, read: measured here: RFP viability control channel.
Where [2] appears, read: measured here: GFP splicing reporter channel.

SMILES strings stand for the structures. The list shows a part of the results. These are further read-outs of the screen, such as a control signal, another cell line or another target. No call is given for them. Most of these compounds were active or inconclusive in the main read-out, so they are no random draw. Words in brackets tell the shape of the fitted curve; partial curves, single points and poor fits give uncertain potencies.

For the compound `Cc1cc(/C=N/NC(=O)C(=O)N2CCCC2)c(C)n1-c1cccc(Br)c1`, the AC50 – broadly, the concentration giving half of the maximal activity seen – under setting [1] was 11.2 µM [rising, single point].

Consider `COc1cc(NC(=O)C2CC(c3cccc(OC)c3OC)=NO2)cc(OC)c1OC` (centres undefined), for which, under setting [1], the AC50 was 8.91 µM [rising, partial curve]. Take `Cc1ccc(C)c(NC(=S)N(CCN(C)C)C(C)c2ccccn2)c1` (centres undefined): the AC50 is, setting by setting: under setting [2], 1.26 µM [rising, full curve]; under setting [1], 0.562 µM [rising, single point]. On to `CCc1cc[n+](C2=C([O-])c3ccccc3C(=O)/C2=N\S(=O)(=O)c2cccs2)cc1`, for which the AC50 was 3.55 µM [rising, single point] under setting [2] and 20 µM [falling, single point] under setting [1]. Regarding `Cc1cc(-c2nnc(SCc3ccccn3)o2)no1`, the AC50 by setting is: under setting [2], 7.94 µM [rising, partial curve]; under setting [1], 0.631 µM [rising, full curve, poor fit]. Consider `O=C1CCCc2c1cc(-c1ccccc1)n2-c1ccccc1`, for which the concentration at half-maximal activity (AC50) under setting [1] is 12.6 µM [rising, partial curve]. As for `COc1nc(-c2ccccc2)ccc1-c1noc(COc2ccccc2)n1`, the AC50 was 6.31 µM [rising, partial curve] under setting [2] and 22.4 µM [rising, single point] under setting [1]. Consider `O=C(c1ccccc1)N1CCN(S(=O)(=O)N2CCOCC2)CC1`, for which the AC50 by setting is: under setting [2], 2.82 µM [falling, partial curve]; under setting [1], 3.16 µM [falling, partial curve, poor fit].

`O=C(O)[C@@H](O)[C@@H](O)[C@H](O)[C@H](O)CO`: under setting [1], the concentration at half-maximal activity (AC50) is 35.5 µM [falling, single point].

On to `CCn1nc([N+](=O)[O-])c(C(C#N)c2nc3ccccc3n2C)c(Cl)c1=O` (centres undefined), for which the concentration at half-maximal activity (AC50) under setting [1] is 14.1 µM [rising, partial curve, poor fit].

With `COc1ccccc1-c1cc(C(F)(F)F)nc(NCc2cccs2)n1`, the AC50 runs as follows: under setting [2], 15.8 µM [rising, single point]; under setting [1], 35.5 µM [rising, single point]. As for `Cc1cc(C)cc(NC(=O)c2cc3c(=O)n(Cc4ccco4)ccc3nc2C)c1`, the AC50 is 12.6 µM [rising, partial curve] under setting [2] and 11.2 µM [rising, partial curve] under setting [1]. With `CNc1c([N+](=O)[O-])cnn1-c1ccccc1F`, under setting [2], the AC50 is 5.62 µM [falling, single point].

For the compound `N#Cc1c(NC(=O)c2cccnc2)sc2c1CCC2`, under setting [1], the AC50 was 15.8 µM [rising, partial curve]. The same measure, in the same setting: the figure for `CCOC(=O)C(C)Sc1ncnc2c1nnn2-c1ccc(F)cc1` (centres undefined) is 12.6 µM [rising, single point]; for `COc1ccc2c(CC(=O)Nc3ncc(C)s3)coc2c1` it is 22.4 µM [falling, single point]; for `CCOc1ccc(CNC23CN4CN(CN(C4)C2)C3)cc1` it is 0.0224 µM [falling, full curve, poor fit].

For `O=C(c1ccccn1)N1N=C2/C(=C/c3ccccc3)CCCC2C1c1ccccc1` (centres undefined), the AC50 under setting [1] was 14.1 µM [rising, single point]. The same measure, in the same setting: the figure for `Cc1nc(NC(=O)/C=C/c2ccccc2)n[nH]1` is 11.2 µM [rising, partial curve]. With `COc1ccc(-c2nc(CN3CCCCC3c3cccnc3)c(C)o2)c(F)c1` (centres undefined), the AC50 under setting [2] was 31.6 µM [falling, partial curve, poor fit]. `CN(C)c1ccc(-c2nc(NCCc3cnc[nH]3)c3ccccc3n2)cc1`: the AC50 runs as follows: under setting [2], 20 µM [falling, partial curve, poor fit]; under setting [1], 20 µM [falling, single point].

Take `O=c1c(O)c(-c2ccc(O)cc2)oc2cc(O)cc(O)c12`: the AC50 by setting is: under setting [2], 4.47 µM [falling, partial curve, poor fit]; under setting [1], 3.55 µM [falling, partial curve, poor fit]. For `O=C1CCCc2c1cc(C(=O)O)c(=O)n2-c1ccccc1`, the concentration at half-maximal activity (AC50) under setting [2] is 0.251 µM [falling, full curve, poor fit].

For `COc1ccccc1CNc1ncncc1-c1ccoc1`, the AC50 under setting [2] was 25.1 µM [falling, partial curve, poor fit].

Consider `CCOc1ccc2nc(N3CCC(C(=O)N4CCN(C5CCCCC5)CC4)CC3)sc2c1`, for which the concentration at half-maximal activity (AC50) under setting [1] is 2.24 µM [rising, partial curve]. `O=C(c1cnc(N2CCCCC2)c2ccccc12)N1CCN(c2ccc(F)cc2)CC1`: the AC50 under setting [2] was 1.41 µM [falling, partial curve, poor fit].

For the compound `Cc1cnc(CNc2ccnc(-c3c(C)noc3C)n2)cn1`, under setting [2], the AC50 is 0.251 µM [falling, full curve, poor fit].

As to `CN(C)c1ccc(-c2ccc3ncnc(NC4CC4)c3c2)cc1`, the AC50 runs as follows: under setting [2], 2.24 µM [falling, partial curve]; under setting [1], 1.41 µM [falling, partial curve]. `Cc1nc2ccc(NC(=O)c3nn(CC(C)C)c(=O)c4ccccc34)cc2s1`: the AC50 under setting [2] is 3.98 µM [falling, single point] and the half-maximal activity concentration (AC50) under setting [1] is 3.98 µM [falling, single point]. On to `CCOc1ccccc1CNC(=O)c1cc2oc3ccccc3c2n1CC`, for which, under setting [1], the AC50 is 11.2 µM [rising, partial curve]. Turning to `Cc1ccn2c(-c3csc(NCc4ccccc4)n3)c(C)nc2c1`, the AC50 under setting [2] is 35.5 µM [rising, single point] and the AC50 under setting [1] was 25.1 µM [rising, partial curve]. Consider `Cc1ccc(-c2csc(NC(=O)CSc3nnc4c(n3)[nH]c3ccccc34)n2)cc1`, for which the AC50 under setting [1] was 5.62 µM [rising, full curve, poor fit]. The same measure, in the same setting: in the case of `Cc1ccsc1/C=N/N=C1\C(=O)Nc2ccccc21` it was 17.8 µM [rising, single point]. Same read-out and setting: in the case of `Cc1cc(C)c(C#N)c(SCc2c(F)cccc2[N+](=O)[O-])n1` it was 35.5 µM [rising, single point]. With `Cc1ccc(-c2nc3scc(CCNS(=O)(=O)c4c(C)noc4C)n3n2)cc1`, the AC50 under setting [2] is 1.41 µM [falling, full curve, poor fit]. Turning to `CC(=O)c1c(C)[nH]c(C(=O)CSc2nc3ccccc3n2C)c1C`, the AC50 runs as follows: under setting [2], 5.01 µM [rising, full curve]; under setting [1], 4.47 µM [rising, full curve].
